Some of the results follow.

By UniProt entry, the sequences of proteins in these tests, tags left out. Where a name states a change or a piece, a line headed by the entry shows the natural chain unless it says otherwise.
UniProt O75695: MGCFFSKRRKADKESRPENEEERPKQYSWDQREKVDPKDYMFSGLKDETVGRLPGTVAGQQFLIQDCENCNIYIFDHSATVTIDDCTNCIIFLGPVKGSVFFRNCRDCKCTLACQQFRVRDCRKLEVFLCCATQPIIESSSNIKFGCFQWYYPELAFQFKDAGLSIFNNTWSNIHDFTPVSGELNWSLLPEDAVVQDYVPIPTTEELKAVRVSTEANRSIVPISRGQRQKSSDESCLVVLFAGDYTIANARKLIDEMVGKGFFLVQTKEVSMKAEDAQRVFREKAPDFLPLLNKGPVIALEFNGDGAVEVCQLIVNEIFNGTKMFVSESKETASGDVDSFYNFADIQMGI
UniProt Q96A37: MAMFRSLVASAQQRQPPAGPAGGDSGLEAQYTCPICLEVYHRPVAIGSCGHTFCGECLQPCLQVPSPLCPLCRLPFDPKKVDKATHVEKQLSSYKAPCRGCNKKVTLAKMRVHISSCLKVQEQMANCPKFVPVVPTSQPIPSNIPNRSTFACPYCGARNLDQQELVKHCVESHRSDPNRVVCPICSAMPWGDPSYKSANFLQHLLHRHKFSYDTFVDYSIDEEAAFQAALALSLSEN
UniProt Q9NTX7: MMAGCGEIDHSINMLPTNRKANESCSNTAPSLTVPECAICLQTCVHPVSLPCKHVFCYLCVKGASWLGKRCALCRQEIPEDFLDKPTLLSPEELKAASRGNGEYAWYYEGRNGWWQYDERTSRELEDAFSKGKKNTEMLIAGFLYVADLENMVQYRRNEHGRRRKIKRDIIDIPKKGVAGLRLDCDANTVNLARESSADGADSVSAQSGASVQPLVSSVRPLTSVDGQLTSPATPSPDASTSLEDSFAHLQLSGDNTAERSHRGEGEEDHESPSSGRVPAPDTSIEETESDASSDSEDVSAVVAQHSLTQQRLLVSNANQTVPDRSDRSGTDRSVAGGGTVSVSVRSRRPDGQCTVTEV
UniProt Q9H6T3, whole entry, looked up: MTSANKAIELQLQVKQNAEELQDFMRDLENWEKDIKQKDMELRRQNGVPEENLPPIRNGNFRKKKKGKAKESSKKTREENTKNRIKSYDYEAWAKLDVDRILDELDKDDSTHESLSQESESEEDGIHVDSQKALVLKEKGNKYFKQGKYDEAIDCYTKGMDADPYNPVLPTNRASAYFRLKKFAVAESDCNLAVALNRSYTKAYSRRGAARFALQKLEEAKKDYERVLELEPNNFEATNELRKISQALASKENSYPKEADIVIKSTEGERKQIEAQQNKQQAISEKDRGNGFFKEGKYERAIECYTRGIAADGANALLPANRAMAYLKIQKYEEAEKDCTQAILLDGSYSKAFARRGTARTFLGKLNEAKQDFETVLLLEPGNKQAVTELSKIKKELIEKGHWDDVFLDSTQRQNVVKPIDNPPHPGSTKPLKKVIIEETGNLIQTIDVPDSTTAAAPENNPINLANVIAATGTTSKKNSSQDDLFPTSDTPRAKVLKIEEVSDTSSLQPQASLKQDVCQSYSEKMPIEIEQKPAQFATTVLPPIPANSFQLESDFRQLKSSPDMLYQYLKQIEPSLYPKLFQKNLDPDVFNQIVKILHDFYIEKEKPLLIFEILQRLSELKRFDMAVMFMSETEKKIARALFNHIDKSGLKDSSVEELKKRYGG
UniProt O43353, whole entry, looked up: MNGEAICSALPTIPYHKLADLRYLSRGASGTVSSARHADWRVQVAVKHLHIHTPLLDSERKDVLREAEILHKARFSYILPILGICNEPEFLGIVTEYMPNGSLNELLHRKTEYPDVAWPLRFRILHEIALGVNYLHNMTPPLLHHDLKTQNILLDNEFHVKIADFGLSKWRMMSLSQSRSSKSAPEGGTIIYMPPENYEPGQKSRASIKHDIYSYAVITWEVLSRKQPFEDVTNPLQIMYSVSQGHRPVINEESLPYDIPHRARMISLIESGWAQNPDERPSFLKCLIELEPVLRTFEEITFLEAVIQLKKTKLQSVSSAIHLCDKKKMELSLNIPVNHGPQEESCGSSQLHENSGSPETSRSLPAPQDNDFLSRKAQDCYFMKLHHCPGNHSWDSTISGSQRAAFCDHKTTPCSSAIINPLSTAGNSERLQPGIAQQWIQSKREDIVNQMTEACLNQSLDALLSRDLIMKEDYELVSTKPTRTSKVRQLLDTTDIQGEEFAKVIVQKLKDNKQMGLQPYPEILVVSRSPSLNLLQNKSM
UniProt Q9H7B2: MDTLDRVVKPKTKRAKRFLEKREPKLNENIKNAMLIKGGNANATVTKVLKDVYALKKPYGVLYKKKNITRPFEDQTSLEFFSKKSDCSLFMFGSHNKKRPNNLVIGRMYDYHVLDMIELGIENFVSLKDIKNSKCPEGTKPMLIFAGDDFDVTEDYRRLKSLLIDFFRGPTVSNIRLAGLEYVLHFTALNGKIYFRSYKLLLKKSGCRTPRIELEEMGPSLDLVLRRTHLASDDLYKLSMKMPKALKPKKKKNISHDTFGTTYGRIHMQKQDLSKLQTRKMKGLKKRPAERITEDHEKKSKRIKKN
UniProt Q9NVN3: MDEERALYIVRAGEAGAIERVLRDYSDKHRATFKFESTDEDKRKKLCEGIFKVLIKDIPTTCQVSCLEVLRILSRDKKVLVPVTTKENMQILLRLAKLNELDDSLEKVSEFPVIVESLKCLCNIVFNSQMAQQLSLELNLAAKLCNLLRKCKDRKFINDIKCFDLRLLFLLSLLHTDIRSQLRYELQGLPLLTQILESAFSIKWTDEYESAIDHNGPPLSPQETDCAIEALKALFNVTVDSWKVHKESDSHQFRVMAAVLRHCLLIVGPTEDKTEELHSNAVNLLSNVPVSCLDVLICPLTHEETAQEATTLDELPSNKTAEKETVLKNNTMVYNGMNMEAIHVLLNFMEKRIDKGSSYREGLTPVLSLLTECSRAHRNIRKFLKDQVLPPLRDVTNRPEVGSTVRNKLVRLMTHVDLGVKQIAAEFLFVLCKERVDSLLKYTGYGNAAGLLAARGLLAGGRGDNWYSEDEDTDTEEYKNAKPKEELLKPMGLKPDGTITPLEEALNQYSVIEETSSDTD
UniProt Q5XPI4: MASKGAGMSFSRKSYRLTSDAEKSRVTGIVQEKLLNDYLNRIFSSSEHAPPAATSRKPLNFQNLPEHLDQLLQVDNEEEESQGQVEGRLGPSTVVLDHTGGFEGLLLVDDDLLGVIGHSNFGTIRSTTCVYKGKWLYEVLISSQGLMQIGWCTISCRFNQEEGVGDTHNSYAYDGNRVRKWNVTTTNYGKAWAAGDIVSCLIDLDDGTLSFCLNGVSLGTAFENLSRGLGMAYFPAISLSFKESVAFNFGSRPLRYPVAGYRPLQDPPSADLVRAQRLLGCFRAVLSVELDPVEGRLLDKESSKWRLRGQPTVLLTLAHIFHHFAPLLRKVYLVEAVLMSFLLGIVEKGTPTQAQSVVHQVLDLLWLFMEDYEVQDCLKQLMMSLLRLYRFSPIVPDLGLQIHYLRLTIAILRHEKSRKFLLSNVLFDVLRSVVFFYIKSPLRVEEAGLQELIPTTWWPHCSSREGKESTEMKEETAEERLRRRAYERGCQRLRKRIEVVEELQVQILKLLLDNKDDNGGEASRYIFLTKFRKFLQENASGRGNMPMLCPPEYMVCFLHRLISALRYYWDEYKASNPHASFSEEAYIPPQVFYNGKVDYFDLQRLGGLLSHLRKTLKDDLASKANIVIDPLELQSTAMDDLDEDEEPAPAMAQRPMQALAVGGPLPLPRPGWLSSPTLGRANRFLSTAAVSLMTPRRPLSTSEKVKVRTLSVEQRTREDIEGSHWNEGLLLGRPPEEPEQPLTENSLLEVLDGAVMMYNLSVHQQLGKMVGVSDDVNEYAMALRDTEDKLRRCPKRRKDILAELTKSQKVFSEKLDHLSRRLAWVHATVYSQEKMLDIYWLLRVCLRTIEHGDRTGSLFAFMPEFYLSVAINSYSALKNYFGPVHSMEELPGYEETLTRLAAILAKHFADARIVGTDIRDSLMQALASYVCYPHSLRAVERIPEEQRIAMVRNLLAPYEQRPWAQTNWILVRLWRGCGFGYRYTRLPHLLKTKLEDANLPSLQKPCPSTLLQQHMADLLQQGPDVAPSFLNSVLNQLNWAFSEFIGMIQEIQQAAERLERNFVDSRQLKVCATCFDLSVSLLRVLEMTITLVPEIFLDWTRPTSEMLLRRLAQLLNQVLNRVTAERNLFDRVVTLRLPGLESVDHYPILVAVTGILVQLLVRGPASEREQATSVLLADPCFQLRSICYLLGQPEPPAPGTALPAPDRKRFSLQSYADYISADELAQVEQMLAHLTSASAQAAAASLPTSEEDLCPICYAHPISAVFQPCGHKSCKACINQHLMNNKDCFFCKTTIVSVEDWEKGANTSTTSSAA
UniProt Q8TDP1: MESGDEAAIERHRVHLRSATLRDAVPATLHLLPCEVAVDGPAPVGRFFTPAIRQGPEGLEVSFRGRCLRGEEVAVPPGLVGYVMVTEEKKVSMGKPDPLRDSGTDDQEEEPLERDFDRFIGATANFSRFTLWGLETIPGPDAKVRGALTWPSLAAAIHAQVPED
UniProt Q96DB5: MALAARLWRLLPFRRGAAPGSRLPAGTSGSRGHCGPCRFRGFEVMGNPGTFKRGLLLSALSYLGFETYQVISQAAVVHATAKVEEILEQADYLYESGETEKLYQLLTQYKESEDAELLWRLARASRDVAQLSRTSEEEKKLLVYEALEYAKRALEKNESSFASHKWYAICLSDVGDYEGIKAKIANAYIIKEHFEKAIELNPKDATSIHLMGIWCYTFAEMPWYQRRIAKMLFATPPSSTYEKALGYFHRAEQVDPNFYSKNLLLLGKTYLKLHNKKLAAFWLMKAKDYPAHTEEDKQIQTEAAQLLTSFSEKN
UniProt Q8IXI1, whole entry, looked up: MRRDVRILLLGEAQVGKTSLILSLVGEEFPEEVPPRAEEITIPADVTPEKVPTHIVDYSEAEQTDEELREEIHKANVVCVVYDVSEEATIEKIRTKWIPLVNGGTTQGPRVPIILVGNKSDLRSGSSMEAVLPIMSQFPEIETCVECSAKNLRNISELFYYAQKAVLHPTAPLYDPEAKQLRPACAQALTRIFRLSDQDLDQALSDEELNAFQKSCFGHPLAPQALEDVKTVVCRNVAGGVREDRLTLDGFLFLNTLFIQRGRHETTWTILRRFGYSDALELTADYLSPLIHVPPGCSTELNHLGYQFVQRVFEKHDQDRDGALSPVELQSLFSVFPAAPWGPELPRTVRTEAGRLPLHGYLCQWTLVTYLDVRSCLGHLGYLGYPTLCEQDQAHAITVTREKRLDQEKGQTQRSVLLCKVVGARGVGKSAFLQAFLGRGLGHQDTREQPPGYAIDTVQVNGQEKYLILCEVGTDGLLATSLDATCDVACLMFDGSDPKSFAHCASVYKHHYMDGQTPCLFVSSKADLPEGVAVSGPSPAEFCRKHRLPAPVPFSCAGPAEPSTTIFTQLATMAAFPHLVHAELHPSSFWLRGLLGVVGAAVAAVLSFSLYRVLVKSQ
UniProt Q5TBB1: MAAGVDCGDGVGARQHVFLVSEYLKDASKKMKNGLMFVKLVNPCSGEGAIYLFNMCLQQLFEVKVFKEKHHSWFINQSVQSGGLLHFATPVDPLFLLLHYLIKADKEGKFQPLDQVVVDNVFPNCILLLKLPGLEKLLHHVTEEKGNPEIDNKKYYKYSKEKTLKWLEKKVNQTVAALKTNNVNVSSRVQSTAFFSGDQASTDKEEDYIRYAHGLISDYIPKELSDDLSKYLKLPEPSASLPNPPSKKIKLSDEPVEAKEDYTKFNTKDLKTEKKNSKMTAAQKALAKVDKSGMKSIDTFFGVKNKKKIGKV
UniProt P35244: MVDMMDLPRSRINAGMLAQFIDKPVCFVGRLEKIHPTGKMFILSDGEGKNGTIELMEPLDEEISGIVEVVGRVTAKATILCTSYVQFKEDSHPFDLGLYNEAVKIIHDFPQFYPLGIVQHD
UniProt Q96DM3: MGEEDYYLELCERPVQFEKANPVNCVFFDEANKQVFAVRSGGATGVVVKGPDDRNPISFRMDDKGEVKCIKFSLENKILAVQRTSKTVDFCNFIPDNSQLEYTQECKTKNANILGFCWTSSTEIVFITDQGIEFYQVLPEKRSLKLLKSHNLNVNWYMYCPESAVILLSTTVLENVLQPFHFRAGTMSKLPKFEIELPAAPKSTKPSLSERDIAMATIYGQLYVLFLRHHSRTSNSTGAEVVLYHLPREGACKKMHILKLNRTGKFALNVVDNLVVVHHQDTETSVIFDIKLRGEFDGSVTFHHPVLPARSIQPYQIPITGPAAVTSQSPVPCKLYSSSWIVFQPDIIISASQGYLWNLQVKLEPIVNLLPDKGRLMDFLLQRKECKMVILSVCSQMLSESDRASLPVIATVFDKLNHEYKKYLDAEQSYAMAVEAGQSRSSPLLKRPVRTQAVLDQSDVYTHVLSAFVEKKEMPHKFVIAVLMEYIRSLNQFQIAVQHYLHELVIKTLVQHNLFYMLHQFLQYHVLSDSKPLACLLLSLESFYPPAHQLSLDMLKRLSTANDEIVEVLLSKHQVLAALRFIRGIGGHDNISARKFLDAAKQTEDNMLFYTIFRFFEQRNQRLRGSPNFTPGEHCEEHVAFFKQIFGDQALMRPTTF

Compound in one test: COC(=O)N[C@@H](C)CNc1nccc(-c2cn(C(C)C)nc2-c2cc(Cl)cc(NS(C)(=O)=O)c2F)n1 [encorafenib]
The test is described as follows: log2 fold change, soluble protein after heating vs DMSO (PISA); higher = thermal stabilisation; K562 lysate, 10 uM; active = over 0.2 and 3.5 SD of the protein, either way, in both replicates (recomputed). The method in brief:
(§1)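 A 30 min treatment with 10 μM compound was applied to crude K562 extract at 1 mg/mL protein in PBS pH 7.4 with 1 mM MgCl2. Heating for 3 min spanned 48°C-58°C, after which aliquots were pooled, adjusted to 0.5% NP-40 at 4°C and spun at 21,000xg for 90 min. TMTpro 16plex LC-MS/MS of the supernatant, with channel sums equalised, gave values recorded as log-two fold change in thermal stability against solvent controls, from duplicates.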
Take RPL36 (UniProt Q9Y3U8): the log2 fold change is inactive: 0.01.
The same measure, in the same setting: to RPL29 (UniProt P47914) belongs inactive: 0.025; to RIPK1 (UniProt Q13546), inactive: -0.017; to RP2 (UniProt O75695), inactive: -0.09.
As to RNF166 (UniProt Q96A37), the log2 fold change was inactive: 0.031.
In the case of RPL10A (UniProt P62906), the log2 fold change is inactive: 0.018.
Still for that read-out and setting: the figure for RIOK3 (UniProt O14730) is inactive: 0.058; for RNF146 (UniProt Q9NTX7) it is inactive: -0.037; for ROR2 (UniProt Q01974) it is inactive: 0.045.
Consider RPL27 (UniProt P61353), for which the log2 fold change was inactive: -0.015.
On the same count and under the same terms, to RPAP3 (UniProt Q9H6T3) belongs inactive: 0.011.
On the same count and under the same terms, to RIPK2 (UniProt O43353) belongs inactive: 0.139; to RPL35 (UniProt P42766), inactive: -0.05.
Consider ROCK1 (UniProt Q13464), for which the log2 fold change is inactive: -0.004.
On the same count and under the same terms, the figure for RNF126 (UniProt Q9BV68) is inactive: 0.057.
The same measure, in the same setting: the figure for RPL18 (UniProt Q07020) is inactive: -0.027; for RPL34 (UniProt P49207) it is inactive: 0; for RPL13A (UniProt P40429) it is inactive: -0.011.
Still for that read-out and setting: to RNF14 (UniProt Q9UBS8) belongs inactive: -0.006; to RNF168 (UniProt Q8IYW5), inactive: -0.046; to RPL3 (UniProt P39023), inactive: 0.016.
As to RPF2 (UniProt Q9H7B2), the log2 fold change was inactive: -0.026.
Same read-out and setting: the figure for RMDN3 (UniProt Q96TC7) is inactive: 0.045; for RPL14 (UniProt P50914) it is inactive: -0.001; for RIC8B isoform 1 (UniProt Q9NVN3) it is inactive: 0.11.
Take RPL32 (UniProt P62910): the log2 fold change was inactive: 0.001.
Still for that read-out and setting: the figure for RIOX2 (UniProt Q8IUF8) is inactive: -0.021; for RNF123 (UniProt Q5XPI4) it is inactive: 0.044; for RPL30 (UniProt P62888) it is inactive: 0.029.
The same measure, in the same setting: the figure for RNASEH2C (UniProt Q8TDP1) is inactive: 0.027; for RNF181 (UniProt Q9P0P0) it is inactive: 0.029; for RMDN1 (UniProt Q96DB5) it is inactive: 0.003.
On the same count and under the same terms, the figure for RHOT2 (UniProt Q8IXI1) is inactive: -0.013; for RNASEH2B (UniProt Q5TBB1) it is inactive: 0.035.
Turning to RPA3 (UniProt P35244), the log2 fold change was inactive: -0.015.
The same measure, in the same setting: to RMC1 (UniProt Q96DM3) belongs inactive: 0.012; to RNF213, A0A0A0MTC1, inactive: 0.054.

Compound in a further test: COC(=O)[C@H](CCSC)NC(=O)C1=C(C=C(C=C1)NC[C@H](CS)N)C2=CC=CC=C2
The test is described as above. The essentials: as §1
For the target RPL36 (UniProt Q9Y3U8), the log2 fold change was inactive: -0.047.
Same read-out and setting: the figure for RPL29 (UniProt P47914) is inactive: -0.02; for RIPK1 (UniProt Q13546) it is inactive: 0.025; for RP2 (UniProt O75695) it is inactive: -0.028.
Turning to RNF166 (UniProt Q96A37), the log2 fold change is inactive: -0.031.
Still for that read-out and setting: the figure for RPL10A (UniProt P62906) is inactive: -0.003.
With RIOK3 (UniProt O14730), the log2 fold change was inactive: 0.132.
Take RNF146 (UniProt Q9NTX7): the log2 fold change was inactive: -0.099.
On the same count and under the same terms, to ROR2 (UniProt Q01974) belongs inactive: -0.015; to RPL27 (UniProt P61353), inactive: 0.012.
RPAP3 (UniProt Q9H6T3): the log2 fold change is inactive: 0.025.
Same read-out and setting: the figure for RIPK2 (UniProt O43353) is inactive: -0.003; for RPL35 (UniProt P42766) it is inactive: -0.017.
The same measure, in the same setting: the figure for ROCK1 (UniProt Q13464) is inactive: -0.019.
The same measure, in the same setting: the figure for RNF126 (UniProt Q9BV68) is inactive: -0.322; for RPL18 (UniProt Q07020) it is inactive: -0.007.
In the case of RPL34 (UniProt P49207), the log2 fold change was inactive: -0.008.
The same measure, in the same setting: to RPL13A (UniProt P40429) belongs inactive: 0.027; to RNF14 (UniProt Q9UBS8), inactive: 0.03.
Turning to RNF168 (UniProt Q8IYW5), the log2 fold change is inactive: -0.102.
Still for that read-out and setting: to RPL3 (UniProt P39023) belongs inactive: -0.006; to RPF2 (UniProt Q9H7B2), inactive: -0.055.
Turning to RMDN3 (UniProt Q96TC7), the log2 fold change was inactive: -0.246.
The same measure, in the same setting: to RPL14 (UniProt P50914) belongs inactive: -0.003.
As to RIC8B isoform 1 (UniProt Q9NVN3), the log2 fold change is inactive: 0.114.
Still for that read-out and setting: the figure for RPL32 (UniProt P62910) is inactive: -0.034; for RIOX2 (UniProt Q8IUF8) it is inactive: 0.184; for RNF123 (UniProt Q5XPI4) it is inactive: -0.062.
The same measure, in the same setting: the figure for RPL30 (UniProt P62888) is inactive: 0.006.
The same measure, in the same setting: to RNASEH2C (UniProt Q8TDP1) belongs inactive: 0.076.
On to RNF181 (UniProt Q9P0P0), for which the log2 fold change is inactive: -0.201.
Still for that read-out and setting: the figure for RMDN1 (UniProt Q96DB5) is inactive: -0.003; for RHOT2 (UniProt Q8IXI1) it is inactive: -0.038.
Still for that read-out and setting: the figure for RNASEH2B (UniProt Q5TBB1) is active: 0.338; for RPA3 (UniProt P35244) it is inactive: -0.019; for RMC1 (UniProt Q96DM3) it is inactive: -0.023.
On the same count and under the same terms, to RNF213, A0A0A0MTC1 belongs inactive: -0.061.

The values are drawn from the supplement of paper PMC10849652.
